PubChem BioAssay AID686938 – Drosophila RNAi Screening Center – 2013
In all, the deposit lists about 23,000 reagents; below is an unselected part of those that have a named target and a result. In the full data, 75 (0.33%) were called active. 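Raw plate signals without normalisation; calls rest on plate z-scores that were not deposited; ratio present for only 364 wells.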 A plus sign joins genes that one reagent is predicted to hit. The record does not give: the dose of the treatment.

- Purpose: 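Looking for CRAC channel components and the factors controlling them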 (primary screen)
- System: Drosophila S2R+ cells
- Reagents: long dsRNA against Drosophila genes, about 0.25 µg dsRNA per well, roughly 10,000 cells
- Duration: 5 days of knock-down before the calcium assay
- Challenge: thapsigargin (SERCA pump blocker) to empty calcium stores; entry signal taken 4 min after adding it
- Read-out: 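Duplicate raw fluo-4 intensities per well from a plate reader, at rest and four minutes after thapsigargin emptied calcium stores; entry-to-rest ratio filled for only some wells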
- Scale: calcium entry signal: higher = stronger calcium signal after store depletion; entry to resting ratio: higher = more calcium entry relative to resting level; resting calcium signal: higher = higher resting calcium signal
- Active means: 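Hit if the duplicate-averaged plate z-score for entry over resting signal is under −3; wells with weak total dye signal (Fmax z < −2) or more than 5 off-targets removed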
- Meaning of the calls: active = strongly reduced calcium entry; inactive = no strong reduction

| target gene | dsRNA | calcium entry signal, replicate 1 (fluorescence units) | calcium entry signal, replicate 2 (fluorescence units) | entry to resting ratio | resting calcium signal, replicate 1 (fluorescence units) | resting calcium signal, replicate 2 (fluorescence units) | call |
| --- | --- | --- | --- | --- | --- | --- | --- |
| CG3860 | DRSC04425 | 3.81e7 | – | – | 1.91e7 | – | inactive |
| Rpn5 | DRSC12367 | 2.75e7 | 3.31e7 | – | 1.47e7 | 1.80e7 | inactive |
| CG10185 | DRSC14205 | 3.33e7 | 5.01e7 | – | 1.70e7 | 6.15e7 | inactive |
| Gal | DRSC03134 | 3.42e7 | 3.59e7 | – | 1.73e7 | 1.62e7 | inactive |
| S-Lap1 | DRSC10627 | 4.84e7 | 2.82e7 | – | 3.19e7 | 1.34e7 | inactive |
| Zip99C | DRSC16320 | 3.63e7 | 4.31e7 | – | 1.64e7 | 2.08e7 | inactive |
| pins | DRSC17043 | 2.25e7 | 3.66e7 | – | 1.25e7 | 1.60e7 | inactive |
| Ids | DRSC08222 | 3.02e7 | 3.01e7 | – | 1.45e7 | 1.38e7 | inactive |
| kri | DRSC10515 | 3.37e7 | 2.55e7 | – | 2.39e7 | 1.21e7 | inactive |
| VhaPPA1-1 | DRSC16170 | 4.79e7 | 3.69e7 | – | 2.87e7 | 2.19e7 | inactive |
| CG31515 | DRSC13610 | 3.17e7 | 3.12e7 | – | 1.44e7 | 1.53e7 | inactive |
| CG31659 | DRSC00760 | 3.79e7 | 4.16e7 | – | 1.80e7 | 1.99e7 | inactive |
| Cp190 | DRSC16607 | 3.74e7 | 5.26e7 | – | 1.76e7 | 2.20e7 | inactive |
| CG30280 | DRSC21761 | 3.34e7 | 2.94e7 | – | 2.01e7 | 1.52e7 | inactive |
| Acer | DRSC01852 | 5.00e7 | – | – | 2.25e7 | – | inactive |
| MED31 | DRSC12142 | 2.83e7 | 4.17e7 | – | 1.52e7 | 2.71e7 | inactive |
| Or85f | DRSC16769 | 2.71e7 | 2.51e7 | – | 1.37e7 | 1.38e7 | inactive |
| CG34045 | DRSC05787 | 3.16e7 | 5.02e7 | – | 1.41e7 | 2.28e7 | inactive |
| CG34039 | DRSC09318 | 3.30e7 | 4.08e7 | – | 1.54e7 | 1.97e7 | inactive |
| Sec3 | DRSC10384 | 3.73e7 | 4.79e7 | – | 1.82e7 | 3.22e7 | inactive |
| AIMP1 | DRSC07118 | 4.28e7 | 3.78e7 | – | 1.91e7 | 1.70e7 | inactive |
| Gmppb | DRSC12169 | 2.67e7 | 3.11e7 | – | 1.14e7 | 1.44e7 | inactive |
| CG14795 | DRSC18513 | 2.48e7 | 3.42e7 | 2 | 1.24e7 | 1.41e7 | inactive |
| CG42516 + Pbp49 | DRSC06073 | 4.17e7 | 3.91e7 | – | 1.74e7 | 1.63e7 | inactive |
| Sytalpha | DRSC02869 | 4.95e7 | 3.22e7 | – | 2.13e7 | 1.51e7 | inactive |
| NKCC | DRSC12140 | 3.30e7 | 4.07e7 | – | 1.44e7 | 1.75e7 | inactive |
| NKCC | DRSC12311 | 4.07e7 | 2.60e7 | – | 1.88e7 | 1.34e7 | inactive |
| Rbfox1 | DRSC09034 | 4.39e7 | 5.33e7 | – | 2.27e7 | 2.52e7 | inactive |
| Rbfox1 | DRSC10157 | 1.49e7 | 3.81e7 | – | 8.43e6 | 2.02e7 | inactive |
| Rbfox1 | DRSC10320 | 1.33e7 | 1.67e7 | – | 8.11e6 | 1.00e7 | inactive |
| Rbfox1 | DRSC21378 | 3.14e7 | 4.09e7 | – | 1.78e7 | 1.80e7 | inactive |
| Rbfox1 | DRSC22992 | 4.32e7 | 3.41e7 | – | 1.80e7 | 1.38e7 | inactive |

Part of the list above, limited to “resting calcium signal, replicate 1 (fluorescence units)”:
Acer [DRSC01852]: 2.25e7
MED31 [DRSC12142]: 1.52e7
Or85f [DRSC16769]: 1.37e7
CG34045 [DRSC05787]: 1.41e7
CG34039 [DRSC09318]: 1.54e7
Sec3 [DRSC10384]: 1.82e7
AIMP1 [DRSC07118]: 1.91e7
Gmppb [DRSC12169]: 1.14e7
CG14795 [DRSC18513]: 1.24e7

Further records:
| target gene | dsRNA | calcium entry signal, replicate 1 (fluorescence units) | calcium entry signal, replicate 2 (fluorescence units) | entry to resting ratio | resting calcium signal, replicate 1 (fluorescence units) | resting calcium signal, replicate 2 (fluorescence units) | call |
| --- | --- | --- | --- | --- | --- | --- | --- |
| Fatp2 | DRSC03971 | 3.35e7 | 3.44e7 | – | 1.63e7 | 1.68e7 | inactive |
| Fatp2 | DRSC04178 | 4.23e7 | 4.91e7 | – | 2.17e7 | 2.29e7 | inactive |
| Fatp2 | DRSC04330 | 4.67e7 | 4.81e7 | – | 2.20e7 | 2.39e7 | inactive |
| CG7492 | DRSC10855 | 5.72e7 | 4.47e7 | – | 3.97e7 | 1.69e7 | inactive |
| Poc1 | DRSC09713 | 5.36e7 | 3.45e7 | – | 3.19e7 | 1.50e7 | inactive |
| CG9525 | DRSC03249 | 3.22e7 | 4.04e7 | – | 1.46e7 | 1.79e7 | inactive |
| yps | DRSC11411 | 3.18e7 | 4.88e7 | – | 1.58e7 | 2.27e7 | inactive |
| PK1-R | DRSC16577 | 3.38e7 | 4.84e7 | – | 1.65e7 | 6.53e7 | inactive |
| Wnk | DRSC11813 | 2.74e7 | 4.15e7 | – | 1.32e7 | 2.09e7 | inactive |
| CG1394 | DRSC19539 | 3.03e7 | 3.91e7 | – | 1.66e7 | 1.99e7 | inactive |
| Hex-t2 | DRSC22517 | 4.18e7 | 3.80e7 | – | 1.97e7 | 1.98e7 | inactive |
| CG7140 | DRSC11799 | 3.01e7 | 5.99e7 | – | 1.52e7 | 2.66e7 | inactive |
| CG15425 | DRSC00440 | 2.17e7 | 2.34e7 | – | 1.14e7 | 1.15e7 | inactive |
| Hen1 | DRSC06139 | 3.94e7 | 4.90e7 | – | 1.70e7 | 2.43e7 | inactive |
| Hen1 | DRSC06140 | 1.87e7 | 3.92e7 | – | 9.86e6 | 1.54e7 | inactive |
| primo-2 + primo-1 | DRSC16511 | 2.94e7 | 4.11e7 | – | 1.50e7 | 5.99e7 | inactive |
| Hmu | DRSC16705 | 4.15e7 | 6.07e7 | – | 2.01e7 | 2.35e7 | inactive |
| CG43052 | DRSC03059 | 4.65e7 | 3.75e7 | – | 2.12e7 | 1.73e7 | inactive |
| Patronin | DRSC06756 | 4.83e7 | 3.77e7 | – | 1.76e7 | 1.80e7 | inactive |
| Patronin | DRSC06757 | 4.81e7 | 6.61e7 | – | 2.18e7 | 2.96e7 | inactive |
| Patronin | DRSC06994 | 4.69e7 | 6.53e7 | – | 2.03e7 | 2.98e7 | inactive |
| sff | DRSC10590 | 4.03e7 | 4.82e7 | – | 1.93e7 | 3.26e7 | inactive |
| IntS1 | DRSC04343 | 2.51e7 | – | – | 1.51e7 | – | inactive |
| klhl10 | DRSC05274 | 5.07e7 | 4.68e7 | – | 2.33e7 | 2.32e7 | inactive |
| klhl10 | DRSC19171 | 3.42e7 | 3.71e7 | – | 1.65e7 | 1.83e7 | inactive |
| klhl10 | DRSC20750 | 3.46e7 | 4.84e7 | – | 1.86e7 | 2.17e7 | inactive |
| klhl10 | DRSC20925 | 2.36e7 | 3.72e7 | – | 1.34e7 | 1.58e7 | inactive |
